From article doi:10.1101/2022.09.16.508001
No constants are given. Whether binding was seen depends on the method and setting. In cells and extracts the contact can be indirect. Some results given as binding are weak or reduced against the parent protein; the word gives no strength. For some assays here: Tags and fused reporters may be left off the sequences shown.

Protein sequences, listed by entry. Tags and fused reporters are not part of them.
UniProt P05804: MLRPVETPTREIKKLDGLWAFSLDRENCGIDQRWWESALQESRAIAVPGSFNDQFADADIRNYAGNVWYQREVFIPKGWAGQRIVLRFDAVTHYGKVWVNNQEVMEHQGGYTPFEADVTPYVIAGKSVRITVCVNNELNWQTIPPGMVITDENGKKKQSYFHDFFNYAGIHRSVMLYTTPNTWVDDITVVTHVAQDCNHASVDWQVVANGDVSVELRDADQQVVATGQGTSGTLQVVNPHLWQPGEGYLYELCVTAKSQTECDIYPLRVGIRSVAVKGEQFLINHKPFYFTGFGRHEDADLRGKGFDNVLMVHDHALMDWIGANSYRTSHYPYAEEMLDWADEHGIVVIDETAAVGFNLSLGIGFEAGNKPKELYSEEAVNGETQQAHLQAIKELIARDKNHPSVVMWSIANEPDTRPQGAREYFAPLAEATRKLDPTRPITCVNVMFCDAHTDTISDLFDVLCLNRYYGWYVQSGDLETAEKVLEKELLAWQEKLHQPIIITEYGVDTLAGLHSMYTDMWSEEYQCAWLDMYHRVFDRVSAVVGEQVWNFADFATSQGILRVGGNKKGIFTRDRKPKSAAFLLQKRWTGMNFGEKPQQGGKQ
UniProt Q9LN63: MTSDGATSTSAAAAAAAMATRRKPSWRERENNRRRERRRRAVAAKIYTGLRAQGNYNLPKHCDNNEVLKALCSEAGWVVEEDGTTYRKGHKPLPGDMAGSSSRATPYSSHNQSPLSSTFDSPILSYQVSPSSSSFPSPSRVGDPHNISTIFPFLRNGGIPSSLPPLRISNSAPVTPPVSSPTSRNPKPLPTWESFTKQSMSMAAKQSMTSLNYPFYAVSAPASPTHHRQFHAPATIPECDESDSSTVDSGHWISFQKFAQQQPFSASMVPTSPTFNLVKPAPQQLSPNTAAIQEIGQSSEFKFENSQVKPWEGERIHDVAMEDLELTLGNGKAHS

Columns and labels:
FLAG-GTL1 (Arabidopsis) = target: T1, FLAG-GTL1 (Arabidopsis) (UniProt Q9C882); assay: co-IP
T1 sequence: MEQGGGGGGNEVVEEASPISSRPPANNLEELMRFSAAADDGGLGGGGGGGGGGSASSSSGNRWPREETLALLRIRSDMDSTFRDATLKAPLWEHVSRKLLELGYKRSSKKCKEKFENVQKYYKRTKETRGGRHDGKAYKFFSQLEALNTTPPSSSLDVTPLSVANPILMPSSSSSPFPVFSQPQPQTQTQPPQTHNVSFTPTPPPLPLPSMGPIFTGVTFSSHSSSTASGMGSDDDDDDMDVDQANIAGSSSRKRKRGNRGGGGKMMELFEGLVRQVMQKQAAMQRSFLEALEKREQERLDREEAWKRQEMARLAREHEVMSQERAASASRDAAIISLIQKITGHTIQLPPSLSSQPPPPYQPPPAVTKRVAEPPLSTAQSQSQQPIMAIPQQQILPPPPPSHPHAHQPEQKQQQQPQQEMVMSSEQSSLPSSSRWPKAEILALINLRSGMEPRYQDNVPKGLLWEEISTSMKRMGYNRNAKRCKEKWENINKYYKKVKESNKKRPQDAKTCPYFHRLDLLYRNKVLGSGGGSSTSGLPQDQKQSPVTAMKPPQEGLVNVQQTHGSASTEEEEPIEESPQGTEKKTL

FLAG-GUS = FLAG-GUS (UniProt P05804); assay: co-IP

binding (FLAG-GTL1 (Arabidopsis)): binds
binding (FLAG-GUS): no binding
Substance: BES1-GFP (from UniProt Q9LN63 1-335)
